Data reported in article PMC8000039, “Toxin-Activating Stapled Peptides Discovered by Structural Analysis Were Identified as New Therapeutic Candidates That Trigger Antibacterial Activity against Mycobacterium tuberculosis in the Mycobacterium smegmatis Model” (Microorganisms, 2021).
Results are given in words; binding and its absence hold for the method and conditions named. Some entries that bind do so weakly or less than the wild type.

Sequences of proteins named here, by UniProt entry; tags and fusion partners are left off.
UniProt O53778: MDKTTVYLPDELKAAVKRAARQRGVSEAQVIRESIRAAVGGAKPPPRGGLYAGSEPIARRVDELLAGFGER

Biological target: VapB26 antitoxin (Rv0581) (Mycobacterium tuberculosis) (UniProt O53778)
Assay: co-purification of the complex

B1: VapC26 toxin (Rv0582) (enzyme, UniProt O53779 1-135)
chain: MIIDTSALLAYFDAAEPDHAAVSECIDSSADALVVSPYVVAELDYLVATRVGVDAELAVLRELAGGAWELANCGAAEIEQAARIVTKYQDQRIGIADAANVVLADRYRTRTILTLDRRHFSALRPIGGGRFTVIP
B1 was tested, and the binding was “binds”.
